Data taken from patent publication US20130344008A1, “NONCARIOUS MATERIAL AND ANTICARIOUS AGENT CONTAINING RARE SUGAR” (priority 2006, published 2013).
Some results were stated once for a whole list of compounds, not compound by compound.

Test system: S. mutans strain MT 8148 (JCM5175)
Experiment: Example 2: bacterial growth (OD 660 nm) and pH of S. mutans culture in phenol red broth with 1% test substance
Assay type: cell-based, Streptococcus mutans
Conditions: PRB broth, 37° C., 48 hours later
Protocol: D-Psicose and L-psicose were used to assay the actions thereof against S. mutans. D-Psicose and L-psicose were supplied from the Rare Sugar Research Center, the National University Corporation Kagawa University. The S. mutans strain MT 8148 (JCM5175) was plated in a Brain Heart Infusion broth supplemented with agar for culturing at 37° C. for 48 hours. The liquid culture was inoculated in a fresh Brain Heart Infusion broth, for culturing at 37° C. for 24 hours. The liquid culture was inoculated in a phenol red broth (PRB broth) containing a test substance at 1%, for culturing at 37° C.; the bacterial growth (absorbance at 660 nm: OD) and the pH were assayed 48 hours later. Asa control, glucose, fructose, sucrose and Xylitol were used. After culturing for a given period of time, additionally, the optical density of apart of the liquid culture was measured with an absorptiometer (OD 660 nm).

Compound | pH
O=C(CO)[C@H](O)[C@H](O)[C@H](O)CO [D-psicose] | ≥ 5.5
O=C(CO)[C@@H](O)[C@@H](O)[C@@H](O)CO [L-psicose] | ≥ 5.5
